Earlier results as cited in patent publication US7659078B1, “Method and kit for determination of prostacyclin in plasma” (University of Kentucky Research Foundation, priority 2002, dated 2010).

Settings: in plasma; cited from earlier work

## CCCCC[C@H](O)/C=C/[C@@H]1[C@H]2C/C(=C/CCCC(=O)O)O[C@H]2C[C@H]1O [Prostacyclin]
  half-life: 1 h
